These are yes or no findings as the source states them, for the method shown. Binding seen in cells or lysates may run through a third protein. These calls come from enrichment with a bait or labelling near it, and not all partners need be listed. Tags and fused reporters may be left off the sequences shown.
Target: T1, His-ALFA-SAA1-N terminus (SAA1-N) (human) (UniProt P0DJI8)
T1 sequence: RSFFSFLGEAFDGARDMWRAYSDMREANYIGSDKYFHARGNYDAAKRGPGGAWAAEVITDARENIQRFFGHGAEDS
Experiment: affinity purification with mass spectrometry

Sequences of proteins named here, by UniProt entry; tags and fusion partners are left off. A change or cut given only in a name is not applied to a line headed by its entry. Residues count along the entry.
UniProt P12763, residues 19-359: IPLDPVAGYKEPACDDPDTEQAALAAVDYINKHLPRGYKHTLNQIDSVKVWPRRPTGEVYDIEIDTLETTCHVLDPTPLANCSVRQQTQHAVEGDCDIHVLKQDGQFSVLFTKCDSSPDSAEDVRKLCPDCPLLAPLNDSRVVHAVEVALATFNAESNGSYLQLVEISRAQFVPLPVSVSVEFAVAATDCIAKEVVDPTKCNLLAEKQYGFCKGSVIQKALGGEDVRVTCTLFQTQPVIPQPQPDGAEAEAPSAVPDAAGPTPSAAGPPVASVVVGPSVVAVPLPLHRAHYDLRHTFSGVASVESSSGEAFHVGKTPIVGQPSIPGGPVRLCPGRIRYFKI
UniProt Q3SX14: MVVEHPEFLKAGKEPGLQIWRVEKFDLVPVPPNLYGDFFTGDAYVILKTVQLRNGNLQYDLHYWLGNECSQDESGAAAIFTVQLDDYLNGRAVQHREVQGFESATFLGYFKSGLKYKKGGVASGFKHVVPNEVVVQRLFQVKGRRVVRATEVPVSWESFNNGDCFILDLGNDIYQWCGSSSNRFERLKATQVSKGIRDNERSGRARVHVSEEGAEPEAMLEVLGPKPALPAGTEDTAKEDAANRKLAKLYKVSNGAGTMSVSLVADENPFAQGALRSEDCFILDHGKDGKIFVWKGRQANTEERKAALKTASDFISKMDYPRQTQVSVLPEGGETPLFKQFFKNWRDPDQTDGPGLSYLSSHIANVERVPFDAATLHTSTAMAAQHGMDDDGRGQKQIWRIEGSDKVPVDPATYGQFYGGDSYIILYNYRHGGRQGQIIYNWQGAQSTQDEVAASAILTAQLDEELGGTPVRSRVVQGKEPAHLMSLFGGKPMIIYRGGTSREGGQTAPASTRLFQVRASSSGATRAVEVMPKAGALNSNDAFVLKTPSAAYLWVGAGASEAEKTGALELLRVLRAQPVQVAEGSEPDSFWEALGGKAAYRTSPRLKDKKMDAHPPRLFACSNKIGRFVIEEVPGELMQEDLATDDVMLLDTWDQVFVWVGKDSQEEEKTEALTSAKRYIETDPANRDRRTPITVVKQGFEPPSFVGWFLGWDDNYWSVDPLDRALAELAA
UniProt Q3T0E5: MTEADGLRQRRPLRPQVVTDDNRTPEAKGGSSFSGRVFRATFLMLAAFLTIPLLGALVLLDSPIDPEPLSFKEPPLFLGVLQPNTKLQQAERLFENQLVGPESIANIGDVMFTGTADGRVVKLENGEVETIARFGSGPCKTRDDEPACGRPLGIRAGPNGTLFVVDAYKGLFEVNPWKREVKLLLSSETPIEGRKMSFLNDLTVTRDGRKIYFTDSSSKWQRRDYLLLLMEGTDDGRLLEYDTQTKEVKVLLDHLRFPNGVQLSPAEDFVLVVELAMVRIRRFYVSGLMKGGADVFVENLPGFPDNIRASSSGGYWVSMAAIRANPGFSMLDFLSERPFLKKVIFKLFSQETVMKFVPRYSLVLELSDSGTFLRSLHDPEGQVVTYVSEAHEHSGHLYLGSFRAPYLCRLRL
UniProt Q3MHN2, residues 22-548: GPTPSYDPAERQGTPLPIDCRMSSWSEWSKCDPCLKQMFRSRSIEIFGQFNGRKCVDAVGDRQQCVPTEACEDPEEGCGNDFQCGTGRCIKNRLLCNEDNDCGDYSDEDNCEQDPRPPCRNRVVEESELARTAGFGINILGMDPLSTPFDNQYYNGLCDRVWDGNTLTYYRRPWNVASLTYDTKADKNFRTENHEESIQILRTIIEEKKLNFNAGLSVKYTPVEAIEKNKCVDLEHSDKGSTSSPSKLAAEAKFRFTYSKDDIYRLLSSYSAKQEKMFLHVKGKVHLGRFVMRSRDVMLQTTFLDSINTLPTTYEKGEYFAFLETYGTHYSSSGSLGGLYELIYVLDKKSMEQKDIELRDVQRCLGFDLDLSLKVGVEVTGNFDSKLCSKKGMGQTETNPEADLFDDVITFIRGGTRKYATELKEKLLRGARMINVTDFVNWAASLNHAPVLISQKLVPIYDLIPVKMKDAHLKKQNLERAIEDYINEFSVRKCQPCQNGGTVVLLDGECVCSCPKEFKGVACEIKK

Row | Substance | binding
1 | COL6A3 (bovine plasma) | binds
2 | APOB (bovine plasma) | binds
3 | AHSG (bovine plasma) (from UniProt P12763 19-359) | binds
4 | clusterin (bovine plasma) | binds
5 | SERPINA10 (bovine plasma) | binds
6 | GSN (bovine plasma) (from UniProt Q3SX14 1-731) | binds
7 | SERPIND1 (bovine plasma) | binds
8 | APMAP (bovine plasma) (from UniProt Q3T0E5) | binds
9 | VTN (bovine plasma) | binds
10 | COL18A1 (bovine plasma) | binds
11 | C9 (bovine plasma) (from UniProt Q3MHN2 22-548) | binds

Source: publication doi:10.1101/2025.07.16.665076
